Data reported in patent US20040009972A1, “Benzodiazepine inhibitors of mitochondial F1F0 ATP hydrolase and methods of inhibiting F1F0 ATP hydrolase” (priority 2002, published 2004).
Some entries share one result that the patent states for a list of compounds. At least one compound was matched to its structure with a doubt left.

Sequences of proteins named here, by UniProt entry; tags and fusion partners are left off. A change or cut given only in a name is not applied to a line headed by its entry.
UniProt P00829: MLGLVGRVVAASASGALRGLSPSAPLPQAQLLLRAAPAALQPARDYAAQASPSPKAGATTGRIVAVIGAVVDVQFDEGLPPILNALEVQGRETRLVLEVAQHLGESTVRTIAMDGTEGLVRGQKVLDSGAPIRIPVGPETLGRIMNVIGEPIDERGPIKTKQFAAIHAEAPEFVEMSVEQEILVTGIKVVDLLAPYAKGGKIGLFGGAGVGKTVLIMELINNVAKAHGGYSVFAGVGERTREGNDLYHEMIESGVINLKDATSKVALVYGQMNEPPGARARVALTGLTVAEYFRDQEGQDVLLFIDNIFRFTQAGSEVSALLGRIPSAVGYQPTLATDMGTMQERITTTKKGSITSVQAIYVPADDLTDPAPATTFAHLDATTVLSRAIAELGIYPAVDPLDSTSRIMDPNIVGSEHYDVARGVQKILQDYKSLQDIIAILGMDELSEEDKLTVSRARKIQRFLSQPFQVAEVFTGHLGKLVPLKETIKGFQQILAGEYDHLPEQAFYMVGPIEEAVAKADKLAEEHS

target: T1, F1F0-ATP hydrolase (Bos taurus, UniProt P00829); test: ATP hydrolase activity in sub mitochondrial particles (coupled pyruvate kinase/lactate dehydrogenase enzyme assay); assay type: biochemical; settings: sub mitochondrial particles (SMP) from bovine hearts; absorbance at 340 nm
T1 construct: sonicated to generate sub mitochondrial particles (SMP); from tissue; host or cells: bovine heart mitochondria, sub-mitochondrial particles (SMP)

Row | SMILES | activity for inhibiting F1F0-ATP hydrolase
1 | Cc1nc[nH]c1CN1c2ccccc2CN(S(=O)(=O)c2ccc(F)cc2)CC1CCc1ccccc1 (stereo not shown) [Example 1, 4-(4-Fluorophenylsulfonyl)-1-(4-methylimidazol-5-ylmethyl)-2-phenylethyl-2,3,4,5-tetrahydrobenzodiazepine] | found to have activity for inhibiting F1F0-ATP hydrolase
2 | O=S(=O)(c1ccccc1)N1Cc2ccccc2N(Cc2cnc[nH]2)C(CCc2ccccc2)C1 (stereo not shown) [Example 10, 1-(Imidazol-4-ylmethyl)-2-phenylethyl-4-phenylsulfonyl-2,3,4,5-tetrahydrobenzodiazepine] | found to have activity for inhibiting F1F0-ATP hydrolase
3 | Cc1nc[nH]c1CN1c2ccccc2CN(Cc2ccc(C(C)(C)C)cc2)C(=O)C1CCc1ccccc1 (stereo not shown) [Example 39, 4-(4-tert-Butylphenylmethyl)-1-(4-methylimidazol-5-ylmethyl)-2-phenylethyl-2,3,4,5-tetrahydrobenzodiazepin-3-one] | found to have activity for inhibiting F1F0-ATP hydrolase
4 | CC(C)(C)c1ccc(S(=O)(=O)N2Cc3ccccc3N(Cc3cnc[nH]3)C(CCc3ccccc3)C2)cc1 (stereo not shown) [Example 37, 4-(4-tert-Butylphenylsulfonyl)-1-(imidazol-2-ylmethyl)-2-phenylethyl-2,3,4,5-tetrahydrobenzodiazepine] | found to have activity for inhibiting F1F0-ATP hydrolase
5 | CC(C)(C)c1ccc(CN2Cc3ccccc3N(Cc3cnc[nH]3)C(CCc3ccccc3)C2=O)cc1 (stereo not shown) [Example 38, 4-(4-tert-Butylphenylmethyl)-(imidazol-4-ylmethyl)-2-phenylethyl-2,3,4,5-tetrahydrobenzodiazepin-3-one] | found to have activity for inhibiting F1F0-ATP hydrolase
6 | Cc1nc[nH]c1CN1c2ccccc2CN(C(=O)OC(C)(C)C)CC1CCc1ccccc1 (stereo not shown) [Example 9, 4-(1,1-Dimethylethoxycarbonyl)-1-(4-methylimidazol-5-ylmethyl)-2-phenylethyl-2,3,4,5-tetrahydrobenzodiazepine] | found to have activity for inhibiting F1F0-ATP hydrolase
7 | CCOC(=O)C(c1ccccc1)N1Cc2ccccc2N(Cc2[nH]cnc2C)C(CCc2ccccc2)C1 (stereo not shown) [Example 8, Methyl 1-[1-(4-methylimidazol-5-ylmethyl)-2-phenylethyl-2,3,4,5-tetrahydrobenzodiazepin-4-yl]-1-phenylacetate] | found to have activity for inhibiting F1F0-ATP hydrolase
